Measured data: PubChem BioAssay AID743454 (Peter MacCallum Cancer Centre, 2014)
In all, the deposit lists about 18,000 reagents; below is a part drawn at random. Over the whole deposit, 450 (2.5%) got an active call. 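Single biological run; no consistent viability z cut-off exists, so the class columns, not z-scores, define the calls.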 Entries without a mark were called inactive. Reagents against one gene are numbered here.

Aim: 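Knock-downs lowering viability or raising caspase 3/7 activity in vorinostat-treated resistant cells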 (primary screen)
Cell system: human HCT116-VR colon cancer cells, selected for vorinostat resistance
Reagent: siRNA pool against human genes, 40 nM siRNA pool
Timing: vorinostat for 24 h, read-out about 72 h after transfection
Conditions: vorinostat at 2.5 µM final
Measurement: 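Two measures, CellTiter-Fluor viability and luminescent caspase 3/7 activity, each as fold change against same-plate mock wells, mean of duplicates, then screen-wide robust z-score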
Direction: viability robust z-score: higher = more viable cells than screen typical; caspase robust z-score: higher = more caspase 3/7 activity than screen typical
Rule for the call: 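a knock-down is a hit when classed RV1 or RV2 for lowered viability, or CA1 or CA2 for caspase activation; those lethal without drug were dropped; hits were retested singly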

gene knocked down	reagent no.	viability hit class	caspase hit class	viability robust z-score	caspase robust z-score
HGH1 (HGH1 cochaperone)	1	no change	no change	-0.47	1.36
SLC25A29	1	no change	no change	-0.35	1.11
KANK3 (KN motif and ankyrin repeat domains 3)	1	no change	no change	-0.3	-0.54
XPNPEP2 (X-prolyl aminopeptidase 2)	1	no change	no change	-0.09	3.13
KRT37 (keratin 37)	1	no change	no change	0.32	-0.45
MS4A3 (membrane spanning 4-domains A3)	1	no change	no change	-0.2	-0.72
ZNF572 (zinc finger protein 572)	1	no change	no change	-0.57	-0.98
PLOD1 (procollagen-lysine,2-oxoglutarate 5-dioxygenase 1)	1	no change	no change	-1.23	-0.76
USP35 (ubiquitin specific peptidase 35)	1	no change	no change	-0.97	0.24
POLI (DNA polymerase iota)	1	no change	no change	0.1	-0.24
DNAJC4 (DnaJ heat shock protein family (Hsp40) member C4)	1	no change	no change	-0.12	-0.92
ZNF555 (zinc finger protein 555)	1	no change	no change	0.82	-0.58
UGT2A3 (UDP glucuronosyltransferase family 2 member A3)	1	no change	no change	0.32	-0.9
UBTD1 (ubiquitin domain containing 1)	1	no change	no change	1.64	-0.75
CREB3L4 (cAMP responsive element binding protein 3 like 4)	1	no change	no change	-0.17	-0.84
CXCL9 (C-X-C motif chemokine ligand 9)	1	no change	no change	0.46	1.01
IQGAP1 (IQ motif containing GTPase activating protein 1)	1	no change	no change	0.45	0.17
GMPPB (GDP-mannose pyrophosphorylase B)	1	no change	no change	1.04	-0.07
TUBA1A (tubulin alpha 1a)	1	no change	no change	-3.68	0.54
PARG (poly(ADP-ribose) glycohydrolase)	1	no change	no change	0.24	-1
KRT20 (keratin 20)	1	no change	no change	1	1.15
AURKC (aurora kinase C)	1	no change	no change	-0.62	-0.4
PPIB (peptidylprolyl isomerase B)	1	no change	no change	0.09	-0.78
SOX2 (SRY-box transcription factor 2)	1	no change	no change	0.8	-0.9
HTATSF1 (HIV-1 Tat specific factor 1)	1	no change	no change	-0.58	1.8
ZRANB3 (zinc finger RANBP2-type containing 3)	1	no change	no change	0.36	-0.52
TPMT (thiopurine S-methyltransferase)	1	no change	no change	0.25	1.4
MED12L (mediator complex subunit 12L)	1	no change	no change	0.75	0.4
CNTNAP2 (contactin associated protein 2)	1	no change	no change	0.24	-0.03
ZNF362 (zinc finger protein 362)	1	no change	no change	1.09	-0.36
C4BPA (complement component 4 binding protein alpha)	1	no change	no change	0.77	0.34
PSMA6 (proteasome 20S subunit alpha 6)	1	no change	no change	-5.32	3.92
GUCA1B (guanylate cyclase activator 1B)	1	no change	no change	0.65	0.61
PDE6D (phosphodiesterase 6D)	1	no change	no change	0.48	-0.63
ABCB11 (ATP binding cassette subfamily B member 11)	1	no change	no change	1.21	-0.15
NSUN2 (NOP2/Sun RNA methyltransferase 2)	1	no change	no change	-1.15	-0.36
RUNX1T1 (RUNX1 partner transcriptional co-repressor 1)	1	no change	no change	-0.8	1.9
FAM181B (family with sequence similarity 181 member B)	1	no change	no change	-0.22	-0.77
LINC00471 (long independently transcribed non-coding RNA 471)	1	no change	no change	1.46	-0.55
RNASE1 (ribonuclease A family member 1, pancreatic)	1	no change	no change	-0.21	0.06
C22orf39 (chromosome 22 open reading frame 39)	1	no change	no change	-0.04	1.8
MERTK (MER proto-oncogene, tyrosine kinase)	1	no change	no change	-0.53	3.37
EEF1AKMT1 (EEF1A lysine methyltransferase 1)	1	no change	no change	0.51	1.79
EIF3J (eukaryotic translation initiation factor 3 subunit J)	1	no change	no change	0.3	0.36
ADAMTS1 (ADAM metallopeptidase with thrombospondin type 1 motif 1)	1	no change	no change	-2.13	-0.45
ALDOB (aldolase, fructose-bisphosphate B)	1	no change	no change	-0.29	-0.57
TMED8 (transmembrane p24 trafficking protein family member 8)	1	no change	no change	1	-0.5
RSPRY1 (ring finger and SPRY domain containing 1)	1	no change	no change	-1.22	-0.89
KAT5 (lysine acetyltransferase 5)	1	no change	no change	-1.05	-0.54
OR1E1 (olfactory receptor family 1 subfamily E member 1)	1	no change	no change	0.37	3.42
AGBL5 (AGBL carboxypeptidase 5)	1	no change	no change	-1.91	1.95
WDR13 (WD repeat domain 13)	1	no change	no change	-0.4	0.66
MTX1 (metaxin 1)	1	no change	no change	0.58	3.38
RAB18 (RAB18, member RAS oncogene family)	1	no change	no change	0.84	-0.36
AGAP4 (ArfGAP with GTPase domain, ankyrin repeat and PH domain 4)	1	no change	no change	-0.74	0.66
AGAP4 (ArfGAP with GTPase domain, ankyrin repeat and PH domain 4)	2	no change	no change	1.4	-0.79
RPL10A (ribosomal protein L10a)	1	no change	no change	-3.49	-1.34

7 neighbouring records already listed:
gene knocked down	reagent no.	viability hit class	caspase hit class	viability robust z-score	caspase robust z-score
AURKC (aurora kinase C)	1	no change	no change	-0.62	-0.4
PPIB (peptidylprolyl isomerase B)	1	no change	no change	0.09	-0.78
SOX2 (SRY-box transcription factor 2)	1	no change	no change	0.8	-0.9
HTATSF1 (HIV-1 Tat specific factor 1)	1	no change	no change	-0.58	1.8
ZRANB3 (zinc finger RANBP2-type containing 3)	1	no change	no change	0.36	-0.52
TPMT (thiopurine S-methyltransferase)	1	no change	no change	0.25	1.4
MED12L (mediator complex subunit 12L)	1	no change	no change	0.75	0.4
